Experimental data: PubChem BioAssay AID1224830 (NIAID, 2016)

Assay: 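Genes whose knock-down alters the TNF-alpha reporter response to LPS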 (primary screen)
Cell system: human THP-1 monocytic leukaemia cells, TNF dual-luciferase reporter clone, PMA-differentiated to macrophage-like cells
Reagent: siRNA pool against human genes, 50 nM
Duration: LPS for 4 h, given about 3 days after siRNA transfection
Treatment: bacterial LPS (TLR4 ligand), 10 ng/ml
Measurement: 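Ratio of firefly to renilla light, scaled to the plate median and expressed as a robust z-score per replicate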
Direction: TNF reporter robust z-score: higher = stronger TNF reporter response to LPS
Active means: 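Each well counts as active if its z-score is over 2.8 or under -1.5; controls are left without a call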
In all, the deposit lists about 18,000 reagents; shown is a part drawn at random. About 2,900 of all reagents (16%) count as active. 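Calls are made per well; low scores hint the gene aids the LPS response, high scores that it dampens it.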 Repeated entries: four replicate wells of each siRNA pool.

Against MYL4 (GeneID 4635) the deposit lists TNF reporter robust z-score 0.1; inactive.
After knock-down of MYL4 (GeneID 4635), the screen gave TNF reporter robust z-score -0.86; inactive.
After knock-down of MYL4 (GeneID 4635), the screen gave TNF reporter robust z-score -0.16; inactive.
Silencing of MYL4 (GeneID 4635) came out at: TNF reporter robust z-score -0.28; inactive.
BCL7C (GeneID 9274) showed TNF reporter robust z-score 1.21; inactive.
BCL7C (GeneID 9274) showed TNF reporter robust z-score 1.85; inactive.
Against BCL7C (GeneID 9274), the entry reads TNF reporter robust z-score 0.62; inactive.
With knock-down of BCL7C (GeneID 9274) the results were TNF reporter robust z-score 0.83; inactive.
MEGF8 (GeneID 1954) gave TNF reporter robust z-score 0.65; inactive.
Against MEGF8 (GeneID 1954), the entry reads TNF reporter robust z-score 0.35; inactive.
MEGF8 (GeneID 1954) scored TNF reporter robust z-score 0.34; inactive.
MEGF8 (GeneID 1954) showed TNF reporter robust z-score -0.23; inactive.

Entries above whose target name begins with B or b (4):
BCL7C (GeneID 9274) → TNF reporter robust z-score = 1.21; call = inactive
BCL7C (GeneID 9274) → TNF reporter robust z-score = 1.85; call = inactive
BCL7C (GeneID 9274) → TNF reporter robust z-score = 0.62; call = inactive
BCL7C (GeneID 9274) → TNF reporter robust z-score = 0.83; call = inactive

Further reagents follow:
ALDH3B1 (GeneID 221) showed TNF reporter robust z-score -0.62; inactive.
Knock-down of ALDH3B1 (GeneID 221) came out at: TNF reporter robust z-score 0.29; inactive.
ALDH3B1 (GeneID 221) gave TNF reporter robust z-score 0.53; inactive.
Depletion of ALDH3B1 (GeneID 221) gave: TNF reporter robust z-score 0.32; inactive.
Silencing of BPY2B (GeneID 442867) came out at: TNF reporter robust z-score -0.79; inactive.
Against BPY2B (GeneID 442867), the entry reads TNF reporter robust z-score -0.56; inactive.
BPY2B (GeneID 442867) gave TNF reporter robust z-score -0.51; inactive.
For BPY2B (GeneID 442867), the entry reads TNF reporter robust z-score -0.4; inactive.
